Measurements reported in publication PMC3917433.
No constants are given. Whether binding was seen depends on the method and setting. Some results given as binding are weak or reduced against the parent protein; the word gives no strength.

The chains behind the UniProt entries cited, without tags or fusion partners.
UniProt O14686: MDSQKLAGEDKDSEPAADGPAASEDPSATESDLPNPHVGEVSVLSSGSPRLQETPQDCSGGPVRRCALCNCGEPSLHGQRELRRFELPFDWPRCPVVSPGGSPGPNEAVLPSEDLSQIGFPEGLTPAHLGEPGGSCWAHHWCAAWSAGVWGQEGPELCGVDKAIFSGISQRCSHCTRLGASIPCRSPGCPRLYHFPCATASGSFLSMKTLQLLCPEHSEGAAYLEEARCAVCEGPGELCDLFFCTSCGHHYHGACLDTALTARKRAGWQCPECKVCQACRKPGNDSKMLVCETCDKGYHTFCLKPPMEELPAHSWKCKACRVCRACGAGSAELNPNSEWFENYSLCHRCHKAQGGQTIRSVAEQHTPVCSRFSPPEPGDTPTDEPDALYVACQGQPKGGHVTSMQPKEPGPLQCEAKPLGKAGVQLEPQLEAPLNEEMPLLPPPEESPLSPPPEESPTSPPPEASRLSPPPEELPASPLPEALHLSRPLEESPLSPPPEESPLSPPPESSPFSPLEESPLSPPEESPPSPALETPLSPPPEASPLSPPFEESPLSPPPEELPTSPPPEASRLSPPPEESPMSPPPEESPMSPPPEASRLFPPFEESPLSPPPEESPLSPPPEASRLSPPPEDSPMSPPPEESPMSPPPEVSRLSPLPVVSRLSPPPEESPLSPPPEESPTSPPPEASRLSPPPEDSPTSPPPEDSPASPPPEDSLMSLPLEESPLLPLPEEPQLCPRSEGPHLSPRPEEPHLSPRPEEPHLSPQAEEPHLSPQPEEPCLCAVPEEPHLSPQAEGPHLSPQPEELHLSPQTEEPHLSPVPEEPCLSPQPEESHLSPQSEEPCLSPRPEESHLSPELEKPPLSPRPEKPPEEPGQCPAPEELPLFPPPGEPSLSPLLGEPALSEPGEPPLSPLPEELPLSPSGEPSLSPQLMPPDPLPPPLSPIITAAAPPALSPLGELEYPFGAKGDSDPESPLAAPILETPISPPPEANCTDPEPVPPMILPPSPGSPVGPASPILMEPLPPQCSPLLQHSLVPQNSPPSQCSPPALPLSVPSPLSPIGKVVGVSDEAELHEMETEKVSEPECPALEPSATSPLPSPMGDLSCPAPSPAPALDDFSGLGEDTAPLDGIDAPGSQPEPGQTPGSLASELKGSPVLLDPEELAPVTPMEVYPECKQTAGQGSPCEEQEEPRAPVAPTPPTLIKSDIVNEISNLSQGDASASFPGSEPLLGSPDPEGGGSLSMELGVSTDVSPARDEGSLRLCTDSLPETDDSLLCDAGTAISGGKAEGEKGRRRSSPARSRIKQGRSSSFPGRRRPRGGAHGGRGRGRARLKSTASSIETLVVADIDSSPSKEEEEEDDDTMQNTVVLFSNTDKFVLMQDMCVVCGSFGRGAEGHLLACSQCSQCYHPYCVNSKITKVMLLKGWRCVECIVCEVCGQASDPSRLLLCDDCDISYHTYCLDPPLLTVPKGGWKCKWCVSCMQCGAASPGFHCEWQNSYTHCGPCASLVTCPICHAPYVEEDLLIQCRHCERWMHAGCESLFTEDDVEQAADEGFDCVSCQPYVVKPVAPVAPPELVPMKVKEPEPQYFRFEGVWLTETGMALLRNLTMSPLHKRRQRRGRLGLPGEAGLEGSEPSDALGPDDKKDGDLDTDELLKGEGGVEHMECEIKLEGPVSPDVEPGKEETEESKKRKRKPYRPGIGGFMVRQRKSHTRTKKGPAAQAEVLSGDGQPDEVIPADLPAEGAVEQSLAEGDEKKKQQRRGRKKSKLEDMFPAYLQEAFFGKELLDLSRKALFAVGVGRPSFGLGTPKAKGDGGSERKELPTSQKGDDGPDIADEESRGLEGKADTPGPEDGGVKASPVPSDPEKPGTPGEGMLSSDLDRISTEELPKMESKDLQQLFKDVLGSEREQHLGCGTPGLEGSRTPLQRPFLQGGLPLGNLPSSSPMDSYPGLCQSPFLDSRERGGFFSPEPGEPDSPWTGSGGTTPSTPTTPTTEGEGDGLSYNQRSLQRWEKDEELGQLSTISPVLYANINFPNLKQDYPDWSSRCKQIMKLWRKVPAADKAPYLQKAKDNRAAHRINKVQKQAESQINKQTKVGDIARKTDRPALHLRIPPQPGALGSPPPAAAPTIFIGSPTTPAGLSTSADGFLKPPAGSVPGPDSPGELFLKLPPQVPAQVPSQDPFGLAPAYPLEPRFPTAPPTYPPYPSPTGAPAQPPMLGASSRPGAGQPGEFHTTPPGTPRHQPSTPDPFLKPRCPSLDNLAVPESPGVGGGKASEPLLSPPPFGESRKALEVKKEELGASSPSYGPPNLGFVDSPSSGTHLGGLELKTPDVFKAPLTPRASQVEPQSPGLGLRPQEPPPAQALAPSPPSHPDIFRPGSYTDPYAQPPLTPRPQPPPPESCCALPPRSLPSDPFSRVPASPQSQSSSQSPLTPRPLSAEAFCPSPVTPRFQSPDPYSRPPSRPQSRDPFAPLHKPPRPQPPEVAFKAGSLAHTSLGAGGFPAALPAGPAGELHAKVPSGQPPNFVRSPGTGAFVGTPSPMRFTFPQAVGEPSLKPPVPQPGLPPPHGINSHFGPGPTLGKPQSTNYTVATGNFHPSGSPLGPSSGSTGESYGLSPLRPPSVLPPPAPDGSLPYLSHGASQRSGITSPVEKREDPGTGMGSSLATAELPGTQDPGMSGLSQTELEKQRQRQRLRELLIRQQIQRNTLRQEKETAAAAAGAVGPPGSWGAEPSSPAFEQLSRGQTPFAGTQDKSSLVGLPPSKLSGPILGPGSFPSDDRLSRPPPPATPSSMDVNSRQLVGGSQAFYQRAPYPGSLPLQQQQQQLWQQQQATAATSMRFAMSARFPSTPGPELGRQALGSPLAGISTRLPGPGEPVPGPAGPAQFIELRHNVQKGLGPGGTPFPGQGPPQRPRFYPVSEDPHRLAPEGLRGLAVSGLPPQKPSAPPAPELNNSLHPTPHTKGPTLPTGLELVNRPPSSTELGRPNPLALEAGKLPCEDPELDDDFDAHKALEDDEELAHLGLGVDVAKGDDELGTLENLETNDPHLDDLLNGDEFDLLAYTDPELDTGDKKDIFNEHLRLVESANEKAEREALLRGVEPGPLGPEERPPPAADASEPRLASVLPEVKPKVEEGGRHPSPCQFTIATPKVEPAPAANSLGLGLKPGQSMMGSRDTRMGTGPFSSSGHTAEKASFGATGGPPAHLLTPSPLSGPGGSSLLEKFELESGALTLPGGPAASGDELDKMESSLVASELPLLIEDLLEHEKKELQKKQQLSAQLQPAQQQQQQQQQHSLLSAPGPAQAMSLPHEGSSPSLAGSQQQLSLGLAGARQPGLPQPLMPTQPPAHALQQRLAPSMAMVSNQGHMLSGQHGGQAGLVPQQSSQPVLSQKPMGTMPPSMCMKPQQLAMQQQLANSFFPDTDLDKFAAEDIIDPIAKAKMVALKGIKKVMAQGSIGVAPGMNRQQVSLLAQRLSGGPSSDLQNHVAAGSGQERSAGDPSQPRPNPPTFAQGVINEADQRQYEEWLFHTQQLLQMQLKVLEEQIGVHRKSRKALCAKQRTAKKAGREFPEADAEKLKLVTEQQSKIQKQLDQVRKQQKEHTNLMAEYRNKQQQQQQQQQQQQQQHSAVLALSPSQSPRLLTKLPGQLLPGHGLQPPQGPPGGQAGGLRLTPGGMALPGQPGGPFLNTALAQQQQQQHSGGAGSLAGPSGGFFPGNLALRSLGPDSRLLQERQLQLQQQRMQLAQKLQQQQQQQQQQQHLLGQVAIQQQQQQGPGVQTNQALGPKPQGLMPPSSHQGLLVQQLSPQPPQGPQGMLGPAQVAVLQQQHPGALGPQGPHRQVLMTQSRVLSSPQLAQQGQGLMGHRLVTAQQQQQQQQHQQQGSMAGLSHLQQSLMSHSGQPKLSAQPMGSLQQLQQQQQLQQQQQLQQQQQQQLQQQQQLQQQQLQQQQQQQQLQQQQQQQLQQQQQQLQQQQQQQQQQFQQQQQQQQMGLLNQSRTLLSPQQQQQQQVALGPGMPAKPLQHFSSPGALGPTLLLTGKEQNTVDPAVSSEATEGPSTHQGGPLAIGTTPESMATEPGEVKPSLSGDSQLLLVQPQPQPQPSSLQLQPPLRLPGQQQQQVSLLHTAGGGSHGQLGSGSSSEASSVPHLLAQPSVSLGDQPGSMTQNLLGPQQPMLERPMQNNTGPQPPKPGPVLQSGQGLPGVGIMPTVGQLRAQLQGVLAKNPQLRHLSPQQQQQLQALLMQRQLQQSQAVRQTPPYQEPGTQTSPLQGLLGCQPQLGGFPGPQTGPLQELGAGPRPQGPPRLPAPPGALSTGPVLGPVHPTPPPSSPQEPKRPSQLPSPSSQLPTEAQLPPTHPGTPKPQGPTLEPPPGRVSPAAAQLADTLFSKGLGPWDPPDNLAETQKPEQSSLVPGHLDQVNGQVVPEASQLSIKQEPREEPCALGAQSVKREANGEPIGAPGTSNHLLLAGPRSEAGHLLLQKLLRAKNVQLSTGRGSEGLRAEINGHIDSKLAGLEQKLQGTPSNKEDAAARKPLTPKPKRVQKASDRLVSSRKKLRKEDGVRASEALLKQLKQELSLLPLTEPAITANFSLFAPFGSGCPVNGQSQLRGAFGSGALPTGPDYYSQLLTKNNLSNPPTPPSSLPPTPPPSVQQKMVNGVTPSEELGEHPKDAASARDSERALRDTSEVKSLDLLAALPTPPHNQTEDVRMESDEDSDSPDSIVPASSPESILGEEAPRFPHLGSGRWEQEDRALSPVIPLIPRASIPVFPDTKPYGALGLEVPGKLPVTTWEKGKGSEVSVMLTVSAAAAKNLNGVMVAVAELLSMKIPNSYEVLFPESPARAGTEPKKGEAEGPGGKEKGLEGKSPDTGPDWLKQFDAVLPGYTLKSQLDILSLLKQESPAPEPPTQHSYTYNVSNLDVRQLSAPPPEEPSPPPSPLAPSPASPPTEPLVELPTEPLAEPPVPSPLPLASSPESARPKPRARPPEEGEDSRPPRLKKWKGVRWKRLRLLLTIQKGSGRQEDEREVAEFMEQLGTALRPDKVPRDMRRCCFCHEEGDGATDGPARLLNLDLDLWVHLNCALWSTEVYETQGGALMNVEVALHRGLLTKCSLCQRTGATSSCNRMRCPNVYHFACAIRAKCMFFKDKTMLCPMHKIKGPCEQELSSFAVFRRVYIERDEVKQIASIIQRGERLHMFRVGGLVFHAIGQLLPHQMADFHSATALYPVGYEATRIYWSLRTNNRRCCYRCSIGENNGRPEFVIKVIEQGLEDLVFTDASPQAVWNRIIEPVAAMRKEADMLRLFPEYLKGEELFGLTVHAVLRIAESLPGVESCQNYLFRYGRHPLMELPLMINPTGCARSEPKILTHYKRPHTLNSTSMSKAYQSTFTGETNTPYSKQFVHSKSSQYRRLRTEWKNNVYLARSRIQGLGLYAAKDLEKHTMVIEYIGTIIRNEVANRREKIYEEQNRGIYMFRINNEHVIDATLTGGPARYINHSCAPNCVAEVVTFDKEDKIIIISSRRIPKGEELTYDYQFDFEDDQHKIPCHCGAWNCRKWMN
UniProt Q92769: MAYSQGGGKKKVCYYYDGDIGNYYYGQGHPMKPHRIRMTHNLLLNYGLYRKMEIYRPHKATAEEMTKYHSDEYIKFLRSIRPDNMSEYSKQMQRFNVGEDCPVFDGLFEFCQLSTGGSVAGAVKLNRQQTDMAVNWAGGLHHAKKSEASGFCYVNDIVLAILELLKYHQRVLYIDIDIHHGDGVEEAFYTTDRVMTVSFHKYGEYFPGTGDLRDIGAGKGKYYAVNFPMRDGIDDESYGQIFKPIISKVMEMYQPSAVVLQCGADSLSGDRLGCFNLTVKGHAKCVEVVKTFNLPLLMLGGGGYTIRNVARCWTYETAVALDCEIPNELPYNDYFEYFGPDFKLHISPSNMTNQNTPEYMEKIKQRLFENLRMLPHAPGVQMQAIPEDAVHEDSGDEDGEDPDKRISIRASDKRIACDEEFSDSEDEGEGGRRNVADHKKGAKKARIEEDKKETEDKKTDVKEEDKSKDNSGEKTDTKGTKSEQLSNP
UniProt P13202: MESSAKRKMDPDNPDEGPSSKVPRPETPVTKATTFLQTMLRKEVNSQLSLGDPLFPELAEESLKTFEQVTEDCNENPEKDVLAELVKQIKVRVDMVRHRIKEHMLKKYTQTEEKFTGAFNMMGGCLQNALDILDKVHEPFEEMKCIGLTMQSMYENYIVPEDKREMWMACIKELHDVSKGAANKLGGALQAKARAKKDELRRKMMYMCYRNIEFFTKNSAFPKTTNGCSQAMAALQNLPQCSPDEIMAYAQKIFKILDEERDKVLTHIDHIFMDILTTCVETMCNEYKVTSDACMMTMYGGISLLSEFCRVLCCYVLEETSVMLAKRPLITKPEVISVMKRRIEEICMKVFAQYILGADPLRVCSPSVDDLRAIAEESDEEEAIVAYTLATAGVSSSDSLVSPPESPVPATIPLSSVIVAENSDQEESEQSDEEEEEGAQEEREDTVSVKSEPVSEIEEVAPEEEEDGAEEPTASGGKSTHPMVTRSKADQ

Experiments:
Test in all cases: peptide or protein array; only the binder purified
[1] = molecular target: T1, Ring finger protein 10 (RNF10) (human) (UniProt Q8N5U6)
T1 sequence: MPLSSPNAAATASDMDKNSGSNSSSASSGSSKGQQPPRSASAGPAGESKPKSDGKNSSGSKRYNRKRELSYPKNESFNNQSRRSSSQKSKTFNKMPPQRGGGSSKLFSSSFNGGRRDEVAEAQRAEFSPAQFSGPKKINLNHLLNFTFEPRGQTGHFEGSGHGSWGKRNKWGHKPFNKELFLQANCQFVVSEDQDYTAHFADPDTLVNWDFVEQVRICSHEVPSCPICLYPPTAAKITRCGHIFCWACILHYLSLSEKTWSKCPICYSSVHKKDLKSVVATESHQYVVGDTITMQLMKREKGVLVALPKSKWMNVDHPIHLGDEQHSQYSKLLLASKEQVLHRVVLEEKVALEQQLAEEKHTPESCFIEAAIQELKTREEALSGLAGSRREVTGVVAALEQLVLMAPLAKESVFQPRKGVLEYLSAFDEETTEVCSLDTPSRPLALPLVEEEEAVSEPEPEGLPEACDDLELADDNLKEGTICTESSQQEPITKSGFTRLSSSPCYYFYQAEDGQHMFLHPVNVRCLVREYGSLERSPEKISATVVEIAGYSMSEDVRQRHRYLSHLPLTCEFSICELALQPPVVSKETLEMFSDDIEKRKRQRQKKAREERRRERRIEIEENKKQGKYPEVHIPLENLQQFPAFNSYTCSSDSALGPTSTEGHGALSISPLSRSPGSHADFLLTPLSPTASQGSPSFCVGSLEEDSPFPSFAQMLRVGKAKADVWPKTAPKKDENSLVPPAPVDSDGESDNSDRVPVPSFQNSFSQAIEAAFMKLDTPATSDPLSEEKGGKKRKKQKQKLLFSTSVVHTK

[2] = molecular target: T2, Intersex-like protein (human) (UniProt Q9NX70)
T2 sequence: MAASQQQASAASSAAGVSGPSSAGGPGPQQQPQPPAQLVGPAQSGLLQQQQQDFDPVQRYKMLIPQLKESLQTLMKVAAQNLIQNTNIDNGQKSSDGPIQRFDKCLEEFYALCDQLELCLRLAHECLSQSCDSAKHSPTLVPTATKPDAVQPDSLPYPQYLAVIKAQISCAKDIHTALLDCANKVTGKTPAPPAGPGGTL

[3] = molecular target: Myeloid/lymphoid or mixed-lineage leukemia 2 (MLL2) (human) (UniProt O14686)
[4] = molecular target: Bromodomain and PHD finger containing, 3 (BRPF3) (human) (UniProt Q9ULD4)
[5] = molecular target: T3, PR domain containing 8 (PRDM8) (human) (UniProt Q9NQV8)
T3 sequence: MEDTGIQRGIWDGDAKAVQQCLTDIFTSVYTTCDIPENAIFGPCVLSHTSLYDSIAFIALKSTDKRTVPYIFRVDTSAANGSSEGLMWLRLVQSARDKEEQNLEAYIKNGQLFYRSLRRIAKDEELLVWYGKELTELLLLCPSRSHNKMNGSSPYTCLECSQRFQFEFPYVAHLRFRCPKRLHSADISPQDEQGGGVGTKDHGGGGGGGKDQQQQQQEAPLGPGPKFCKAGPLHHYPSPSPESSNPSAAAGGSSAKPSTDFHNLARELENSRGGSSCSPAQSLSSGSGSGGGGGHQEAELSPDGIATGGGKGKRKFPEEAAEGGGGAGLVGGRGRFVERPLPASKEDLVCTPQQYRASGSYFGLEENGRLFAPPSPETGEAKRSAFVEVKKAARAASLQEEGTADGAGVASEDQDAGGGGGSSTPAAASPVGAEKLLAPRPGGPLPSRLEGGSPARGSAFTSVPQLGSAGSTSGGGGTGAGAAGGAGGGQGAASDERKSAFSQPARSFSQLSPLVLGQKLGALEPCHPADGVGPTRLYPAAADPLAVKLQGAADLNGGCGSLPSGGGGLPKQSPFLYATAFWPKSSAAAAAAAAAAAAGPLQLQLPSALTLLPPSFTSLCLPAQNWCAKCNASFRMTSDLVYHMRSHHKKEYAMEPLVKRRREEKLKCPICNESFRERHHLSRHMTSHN

[6] = molecular target: T4, OTU domain containing 1 (OTUD1) (human) (UniProt Q5VV17)
T4 sequence: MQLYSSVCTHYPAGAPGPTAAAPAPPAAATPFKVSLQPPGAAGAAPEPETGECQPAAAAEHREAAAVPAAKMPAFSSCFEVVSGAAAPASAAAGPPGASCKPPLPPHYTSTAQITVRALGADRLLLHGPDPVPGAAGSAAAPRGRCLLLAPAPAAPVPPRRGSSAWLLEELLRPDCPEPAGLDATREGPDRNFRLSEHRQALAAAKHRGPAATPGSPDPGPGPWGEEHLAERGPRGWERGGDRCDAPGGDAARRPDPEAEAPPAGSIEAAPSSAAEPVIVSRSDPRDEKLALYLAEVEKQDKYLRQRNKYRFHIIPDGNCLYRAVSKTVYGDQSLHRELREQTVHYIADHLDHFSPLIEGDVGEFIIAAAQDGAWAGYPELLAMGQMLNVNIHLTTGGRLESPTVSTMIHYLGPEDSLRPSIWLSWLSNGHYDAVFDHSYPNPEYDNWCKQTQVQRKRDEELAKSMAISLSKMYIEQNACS

[7] = molecular target: T5, Cell division cycle 25 homolog A (CDC25A) (human) (UniProt P30304)
T5 sequence: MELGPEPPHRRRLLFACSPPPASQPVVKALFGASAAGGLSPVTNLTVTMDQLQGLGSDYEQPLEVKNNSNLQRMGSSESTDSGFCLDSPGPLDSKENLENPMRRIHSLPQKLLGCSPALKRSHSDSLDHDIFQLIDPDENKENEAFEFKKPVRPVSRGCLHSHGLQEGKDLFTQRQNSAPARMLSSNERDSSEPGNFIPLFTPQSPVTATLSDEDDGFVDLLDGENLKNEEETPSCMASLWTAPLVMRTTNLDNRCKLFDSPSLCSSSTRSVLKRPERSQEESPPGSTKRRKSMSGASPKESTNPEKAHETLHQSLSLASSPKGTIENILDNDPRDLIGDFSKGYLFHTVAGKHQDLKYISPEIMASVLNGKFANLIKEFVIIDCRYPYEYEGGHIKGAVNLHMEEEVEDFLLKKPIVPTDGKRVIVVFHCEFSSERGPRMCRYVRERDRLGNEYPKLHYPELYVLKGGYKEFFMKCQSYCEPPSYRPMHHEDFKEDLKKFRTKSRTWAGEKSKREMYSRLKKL

HDAC2 (human) = HDAC2 (human) (UniProt Q92769)
HDAC1 (human) = HDAC1 (human) (UniProt Q13547)

Substance: Human cytomegalovirus immediate-early protein 1 (from UniProt P13202 1-491)
- binding [1]: binds
- binding [2]: binds
- binding [3]: binds
- binding [4]: binds
- binding [5]: binds
- binding [6]: binds
- binding [7]: binds
- binding (HDAC2 (human)): no binding
- binding (HDAC1 (human)): no binding
